According to doi:10.1101/2024.08.01.605889:
Results are given in words; binding and its absence hold for the method and conditions named. Binding seen in cells or lysates may run through a third protein. These calls come from enrichment with a bait or labelling near it, and not all partners need be listed. One block for each binder: values may come before it.

Protein sequences, listed by entry. Tags and fused reporters are not part of them.
UniProt P14635: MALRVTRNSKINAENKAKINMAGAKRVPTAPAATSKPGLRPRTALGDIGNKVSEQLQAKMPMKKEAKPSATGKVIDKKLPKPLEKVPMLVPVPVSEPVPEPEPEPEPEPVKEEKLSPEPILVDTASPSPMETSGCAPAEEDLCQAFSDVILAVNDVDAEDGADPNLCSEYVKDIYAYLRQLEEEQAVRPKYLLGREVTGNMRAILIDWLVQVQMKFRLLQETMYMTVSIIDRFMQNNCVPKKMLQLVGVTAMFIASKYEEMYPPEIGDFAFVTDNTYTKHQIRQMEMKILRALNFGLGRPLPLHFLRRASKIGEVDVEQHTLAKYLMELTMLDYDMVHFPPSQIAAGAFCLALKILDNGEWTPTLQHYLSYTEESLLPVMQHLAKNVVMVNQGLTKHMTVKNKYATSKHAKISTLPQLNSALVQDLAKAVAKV

Target: cyclin B1 (human (endogenous in NCI-H1048 and NCI-H446)) (UniProt P14635)
Test: affinity purification with mass spectrometry

- binding: binds
B1: Myt1 (enzyme, UniProt Q99640 1-499)
chain: MLERPPALAMPMPTEGTPPPLSGTPIPVPAYFRHAEPGFSLKRPRGLSRSLPPPPPAKGSIPISRLFPPRTPGWHQLQPRRVSFRGEASETLQSPGYDPSRPESFFQQSFQRLSRLGHGSYGEVFKVRSKEDGRLYAVKRSMSPFRGPKDRARKLAEVGSHEKVGQHPCCVRLEQAWEEGGILYLQTELCGPSLQQHCEAWGASLPEAQVWGYLRDTLLALAHLHSQGLVHLDVKPANIFLGPRGRCKLGDFGLLVELGTAGAGEVQEGDPRYMAPELLQGSYGTAADVFSLGLTILEVACNMELPHGGEGWQQLRQGYLPPEFTAGLSSELRSVLVMMLEPDPKLRATAEALLALPVLRQPRAWGVLWCMAAEALSRGWALWQALLALLCWLWHGLAHPASWLQPLGPPATPPGSPPCSLLLDSSLSSNWDDDSLGPSLSPEAVLARTVGSTSTPRSRCTPRDALDLSDINSEPPRGSFPSFEPRNLLSLFEDTLDPT

- binding: binds
B2: p57^Kip2 (protein, UniProt P49918 1-316)
chain: MSDASLRSTSTMERLVARGTFPVLVRTSACRSLFGPVDHEELSRELQARLAELNAEDQNRWDYDFQQDMPLRGPGRLQWTEVDSDSVPAFYRETVQVGRCRLLLAPRPVAVAVAVSPPLEPAAESLDGLEEAPEQLPSVPVPAPASTPPPVPVLAPAPAPAPAPVAAPVAAPVAVAVLAPAPAPAPAPAPAPAPVAAPAPAPAPAPAPAPAPAPAPDAAPQESAEQGANQGQRGQEPLADQLHSGISGRPAAGTAAASANGAAIKKLSGPLISDFFAKRKRSAPEKSSGDVPAPCPSPSAAPGVGSVEQTPRKRLR
